# PubChem BioAssay AID2417 (National Center for Advancing Translational Sciences (NCATS), 2010)
# Out of some 140,000 compounds screened, about 4,300 (3.1%) were called active. Inconclusive means that the source gave no clear call. Such entries were picked first, then a sample of the others.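 How the source made its calls: active means readout at or below -70, meaning at least 70% loss of cells showing the perinucleolar compartment, a nuclear body marking cancer cells; inconclusive means readout between -30 and a set limit; inactive means the rest.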
# Test: High Content Assay for Compounds that inhibit the Assembly of the Perinucleolar Compartment;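 further: plate controls were DMSO wells for no effect and camptothecin positive control wells for full effect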
# Details: PC3M PTB-GFP, PNC prevalence imaging, 16 h; at 10 µM; active compounds read low
# Outline: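 PC3M cells stably expressing PTB-GFP, 750–1000 cells/well, treated 16 h at 37 °C with compound (23 nl of library stock), in duplicate. After paraformaldehyde fixation and Hoechst stain, imaged at 20x; PNC prevalence scored by image analysis.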
row,SMILES,"activity change (PNC), negative = inhibition"
1,Cc1ccc(-n2nnnc2SC(C)C(=O)Nc2ccccc2-c2ccccc2)cc1 (centres undefined),inconclusive: -59.8%
2,CC(C)NC(=O)c1c(O)c2ccccc2[nH]c1=O,inactive: -26.8%
3,O=C(CNC(=O)c1cccs1)NCC(=O)OCc1c(Cl)cccc1Cl,inactive: 81.5%
4,COC(=O)c1[nH]c2c(c1C)C(=O)CC(c1ccccc1)C2 (centres undefined),active: -111%
5,Cn1cccc1/C=N/NC(=O)c1sc2cc(Cl)ccc2c1Cl,inconclusive: -65.7%
6,Cn1nc(OCc2ccccc2)ccc1=O,inconclusive: -31.8%
7,COc1ccc(C2=NOC(Cn3c(Cc4ccc(Cl)cc4)nc4c3c(=O)n(C)c(=O)n4C)C2)cc1 (centres undefined),active: -108%
8,OC(COc1ccccc1)Cn1cc(Br)cn1 (centres undefined),inconclusive: -40.5%
9,Cc1ccc(S(=O)(=O)N2CCOCC2)cc1N/N=C(\C#N)c1nc2ccccc2[nH]1,inconclusive: -32%
10,CC(C)C[C@@H]1NC(=O)[C@H](Cc2ccc(O)cc2)NC(=O)[C@H](CCC(N)=O)NC(=O)c2cc([N+](=O)[O-])cc(I)c2NCC[C@@H](C(N)=O)NC1=O,inconclusive: -53.9%
11,COc1ccccc1CNC(=O)CSc1ccc(C)cc1,inconclusive: -38.1%
12,CCCCc1nc2sc3c(=O)n(N)cnc3c2c2c1CCCC2,inconclusive: -61.8%
13,Cc1cc([N+](=O)[O-])nn1Cc1ccccc1F,inconclusive: -53.3%
14,N#C/C(=C\c1cn[nH]c1-c1ccc(Cl)cc1)C(=O)NCc1ccccc1,inconclusive: -36.5%
15,O=C1CC(N2CCN(Cc3ccccc3)CC2)C(=O)N1c1ccc2c(c1)OCCO2 (centres undefined),inconclusive: -38.1%
16,CCN(CC)S(=O)(=O)c1cccc(-c2nnc(SC(C)C#N)n2Cc2ccccc2)c1 (centres undefined),inactive: 4.72%
17,CO/N=C/c1ccc(Oc2ccc([N+](=O)[O-])cc2[N+](=O)[O-])c(OC)c1,inconclusive: -31.6%
18,CN(c1ccccc1C(=O)Nc1cccnc1)S(C)(=O)=O,inconclusive: -59.9%
19,CC(C)(C)C1CCC(OC(=O)c2ccncc2)CC1 (centres undefined),inconclusive: -51.8%
20,N#Cc1ccc(C(c2nnnn2Cc2ccccc2)N2CCCC2)cc1 (centres undefined),inactive: 60.8%
21,CCn1c(SCC(=O)Nc2ccc3c(c2)OCO3)nc2ccccc21,inconclusive: -32.2%
22,Cc1ccc(N2C(=O)[C@@H]3[C@H](C2=O)C2c4ccccc4C=NN2[C@@H]3C(=O)c2ccc(Cl)cc2)cc1 (some centres undefined),inconclusive: -54%
23,Cn1c2ccccc2c2cc(C(=O)N3CCN(CCO)CC3)sc21,inconclusive: -57.4%

row,SMILES,"activity change (PNC), negative = inhibition"
1,COc1ccc(C(=O)n2c(-c3ccco3)nc3ccccc32)cc1,inconclusive: -53.4%
2,O=C(N/N=C\c1ccc(F)cc1)c1cc(OCC(F)(F)F)ccc1OCC(F)(F)F,active: -86.7%
3,C/C(=N/NS(=O)(=O)c1ccccc1)c1ccc(NC(=O)C(F)(F)F)cc1,inactive: 8.62%
4,CCC(Sc1ccc(C(=O)O)cc1)C(=O)O (centres undefined),inactive: -7.17%
5,O=C(Nc1nc2c(c(=O)[nH]1)CCCC2)C1CC1,inactive: -27.6%
6,COc1ccc(C(=O)Nc2cccc(OC(=O)c3ccc(C)c(C)c3)c2)cc1,inactive: -8.11%
7,O=C(NCc1ccccc1)c1ccc(Br)o1,inactive: -4.53%
8,Cc1ccc(C)c(N(CC(=O)NCc2ccco2)C(=O)CCC(=O)Nc2ccccn2)c1,inconclusive: -38.6%
9,Cc1ccc(CNS(=O)(=O)c2ccc3oc(C(=O)O)c(C)c3c2)cc1,inconclusive: -49.5%
10,O=C(O)C1C2CC3C(OC(=O)C31)C2Cl (centres undefined),inactive: -22.6%
11,COCCNc1cc(N)c([N+](=O)[O-])cc1[N+](=O)[O-],inconclusive: -39.2%
12,CCCNc1c(N)c(=O)oc2ccccc12,inconclusive: -59%
13,Cc1nc(NC(=S)NC(=O)c2cccs2)sc1C(=O)N(C)C,inactive: -19.9%
14,Cn1c(SCc2cccnc2)nnc1-c1c[nH]c2ccccc12,inconclusive: -49.6%
15,CCCc1cc(=O)n2[nH]c(-c3ccc(Br)cc3)cc2n1,active: -100%
16,Cc1ccc(NC(=O)CSc2nc(O)c(Cc3ccccc3)c(=O)n2-c2ccccc2)cc1,inconclusive: -34.8%
17,Cc1ccc2c(c1)N1C(=O)c3ccccc3C1C1=C(CC(C)(C)CC1=O)N2 (centres undefined),inconclusive: -37.9%
18,CCOC(=O)c1cc(CC)sc1N,inconclusive: -46.4%
19,COc1cccc(OC)c1C(=O)Nc1ccc(CN2CCCCC2)cc1,inconclusive: -45.6%
20,Cc1ccc(Nc2nc(CSc3nnc(-c4ccccc4)n3C)cs2)cc1,inconclusive: -52.1%
21,NC(=O)C1CCN(C(=O)COc2ccc3ccccc3c2)CC1,inconclusive: -38.6%
22,Cc1ccc2nc(C)cc(NCCO)c2c1,inconclusive: -63.3%
23,COCCCN1C(=O)C(=O)/C(=C(/O)c2ccc3c(c2)CC(C)O3)C1c1cccnc1 (centres undefined),inconclusive: -48.7%

# In a second layout: five of the compounds above.
row | SMILES | activity change (PNC), negative = inhibition
4 | CCC(Sc1ccc(C(=O)O)cc1)C(=O)O (centres undefined) | inactive: -7.17%
6 | COc1ccc(C(=O)Nc2cccc(OC(=O)c3ccc(C)c(C)c3)c2)cc1 | inactive: -8.11%
7 | O=C(NCc1ccccc1)c1ccc(Br)o1 | inactive: -4.53%
12 | CCCNc1c(N)c(=O)oc2ccccc12 | inconclusive: -59%
14 | Cn1c(SCc2cccnc2)nnc1-c1c[nH]c2ccccc12 | inconclusive: -49.6%

# Additional structures follow.

row,SMILES,"activity change (PNC), negative = inhibition"
1,O=C(O)C1CCCN1C(=O)Oc1ccccc1 (centres undefined),inconclusive: -46.3%
2,COc1ccc(N(C(=O)CCl)C(C(=O)NCCc2ccccc2)c2cccs2)cc1 (centres undefined),inactive: -3.14%
3,Cc1noc(C)c1CSc1nnc2scc(-c3ccccc3)n12,inconclusive: -47.9%
4,Cc1ccccc1NC(=O)C1CCCN1/C=C/C(=O)C(F)(F)F (centres undefined),inconclusive: -78.7%
5,Cc1ccc(CN2CCN(CC(=O)NCCCN3CCN(c4ccc(F)cc4)CC3)C2=O)cc1,inconclusive: -78.3%
6,CCCCn1c(SCC(=O)N2CCOCC2)nnc1-c1ccoc1C,active: -100%
7,Cc1ccc(N2CC(C(=O)N3CCCc4ccccc43)CC2=O)cc1 (centres undefined),inconclusive: -64.8%
8,C/C(=C/C(=O)N1CCN(C)CC1)C(=O)O,inconclusive: -54.8%
9,O=C(NNC(=O)c1cccc(S(=O)(=O)N2CCN(c3ccccc3)CC2)c1)c1ccc(Cl)cc1,inconclusive: -43.7%
10,c1ccc(Nc2nc3ccccc3n3cnnc23)cc1,inactive: 26.5%
11,Cc1ccc(-c2csc(N(C)C(=O)c3c(C)nn(-c4ccccc4)c3Cl)n2)cc1,active: -98.7%
12,O=C(NC(=S)Nc1cccc(Cl)c1N1CCCCC1)c1ccco1,inconclusive: -49.5%
13,CCOC(=O)C1=C(c2ccccc2)Nc2nc(C)nn2C1c1cccc(OC)c1OC (centres undefined),inconclusive: -44%
14,CC(C)c1ccc(NC(=O)C2CC(=O)N=C(N)S2)cc1 (centres undefined),inactive: -28.4%
15,CCCN(CCC)C(=O)CSc1nc2n[nH]c(C)c2c(=N)n1-c1ccc(OCC)cc1,inconclusive: -47.1%
16,COCCCNC(=O)COc1ccc(S(=O)(=O)NCc2ccccc2)cc1Cl,inactive: 42.6%
17,COc1ccccc1N1CCN(CC(=O)Nc2cc(F)ccc2C)CC1,inconclusive: -45.9%
18,CCOC(=O)c1[nH]c(C)c(/C(O)=C2\C(=O)C(=O)N(CCCN3CCOCC3)C2c2cccnc2)c1C (centres undefined),inactive: 99.5%
19,O=C1CS/C(=N/N=C2C3CC4CC(C3)CC2C4)N1,inconclusive: -36.7%
20,O=C(Nc1cccc2c1CCCC2)C1CCN(c2nnnn2-c2ccccc2)CC1,inconclusive: -47%
21,Cc1ccc(-n2nnnc2CSc2nnc(-c3ccc(O)cc3)o2)cc1,inactive: -10.1%
22,Cc1ccc(-c2cc(C(=O)N/N=C/c3c[nH]c4ccccc34)[nH]n2)cc1,inconclusive: -47%
23,COc1cccc(/C=C/C(=C2/C(=O)N(c3ccccc3)N=C2C)c2ccc(C)cc2)c1OC,inconclusive: -40.4%

row,SMILES,"activity change (PNC), negative = inhibition"
1,CC1(C)CC(=O)C=C(NCCN2CCN(C(=O)Nc3ccccc3)CC2)C1,inconclusive: -47.7%
2,O=C(N/N=C/c1ccc(-c2ccccc2[N+](=O)[O-])o1)[C@H]1C[C@@H]1c1ccccc1,inactive: -6.08%
3,CCC(Sc1ccc2nnc(-c3ccc(F)cc3)n2n1)C(=O)OC (centres undefined),inconclusive: -31.9%
4,Nc1nc(CN2CCCCCC2)nc(Nc2ccccc2)n1,inconclusive: -47.7%
5,C=CCn1c2ccccc2c2nnc(SCCCn3c(=O)[nH]c4ccccc43)nc21,inactive: 3.37%
6,COC(=O)C1(C)NC(c2cccs2)C2C(=O)N(c3ccccc3F)C(=O)C21 (centres undefined),inconclusive: -72.1%
7,Cn1c(=NC(=O)CSCC(=O)N2CCOCC2)sc2ccccc21,inconclusive: -37.8%
8,CC1CCCN(c2ccc([N+](=O)[O-])cc2C(=O)c2ccccc2)C1 (centres undefined),active: -99.6%
9,Cn1nc(C(=O)Nc2c(-c3ccccc3)nc3sccn23)c2ccccc2c1=O,inconclusive: -60.1%
10,c1ccc(Cn2c(-c3ccccc3)nc3nc4ccccc4nc32)cc1,inconclusive: -56%
11,COC(=O)c1sc(=S)n(-c2ccccc2OC)c1N,inactive: 47.3%
12,CCOC(=O)c1nc2sc3c(c2c(=O)[nH]1)CCCC3,active: -86.5%
13,Cc1ccc(Cl)cc1N1CCN(C(=O)c2ccc3nc[nH]c3c2)CC1,inconclusive: -67.4%
14,Cc1cc(C)n(-c2nnc(C)n2N)n1,inconclusive: -35.5%
15,CCOC(=O)N1CCN(CC(=O)Nc2cc(C)nn2-c2nc3ccccc3s2)CC1,inconclusive: -50.7%
16,CCOc1ccc(C2CC(=O)c3c([nH]c(C(=O)OC)c3C)C2)cc1OC (centres undefined),inactive: -19.3%
17,O=C(c1ccc(Br)o1)N1CCN(c2ccccn2)CC1,inconclusive: -42.9%
18,O=C(c1ccc2c(c1)OCO2)N1CCCc2ccccc21,inactive: 26.7%
19,CCOc1ccc(C2C(C(=O)c3ccco3)=C(O)C(=O)N2Cc2cccnc2)cc1OC (centres undefined),inactive: 29.1%
20,Cc1ccc(S(=O)(=O)NCC(=O)N(CC(=O)NC2CCCCC2)Cc2ccco2)cc1,inconclusive: -48.2%
